Assay results reported in PubChem BioAssay AID504327 (National Center for Advancing Translational Sciences (NCATS), 2011).
Values joined by “and” are separate entries in the source; they are usually repeats but may differ in a detail not shown here. Identical values can stand only once. The whole screen tested about 390,000 compounds, of which about 820 (0.21%) were called active. This list was built around the results that the source calls inconclusive (neither active nor inactive); the mix of calls is not that of the screen. Calls follow the shape of the dose curve; as a rule, active = well fitted inhibition curve with a large enough effect; inconclusive = small, poorly fitted or top-dose-only effect, or another doubt; inactive = no such curve, though single readings can be large or run the other way. Where the call is inconclusive, the potency comes from a doubtful curve fit.

Amino acid sequences for entries named in this document (tags omitted).
UniProt Q92830, whole entry, looked up: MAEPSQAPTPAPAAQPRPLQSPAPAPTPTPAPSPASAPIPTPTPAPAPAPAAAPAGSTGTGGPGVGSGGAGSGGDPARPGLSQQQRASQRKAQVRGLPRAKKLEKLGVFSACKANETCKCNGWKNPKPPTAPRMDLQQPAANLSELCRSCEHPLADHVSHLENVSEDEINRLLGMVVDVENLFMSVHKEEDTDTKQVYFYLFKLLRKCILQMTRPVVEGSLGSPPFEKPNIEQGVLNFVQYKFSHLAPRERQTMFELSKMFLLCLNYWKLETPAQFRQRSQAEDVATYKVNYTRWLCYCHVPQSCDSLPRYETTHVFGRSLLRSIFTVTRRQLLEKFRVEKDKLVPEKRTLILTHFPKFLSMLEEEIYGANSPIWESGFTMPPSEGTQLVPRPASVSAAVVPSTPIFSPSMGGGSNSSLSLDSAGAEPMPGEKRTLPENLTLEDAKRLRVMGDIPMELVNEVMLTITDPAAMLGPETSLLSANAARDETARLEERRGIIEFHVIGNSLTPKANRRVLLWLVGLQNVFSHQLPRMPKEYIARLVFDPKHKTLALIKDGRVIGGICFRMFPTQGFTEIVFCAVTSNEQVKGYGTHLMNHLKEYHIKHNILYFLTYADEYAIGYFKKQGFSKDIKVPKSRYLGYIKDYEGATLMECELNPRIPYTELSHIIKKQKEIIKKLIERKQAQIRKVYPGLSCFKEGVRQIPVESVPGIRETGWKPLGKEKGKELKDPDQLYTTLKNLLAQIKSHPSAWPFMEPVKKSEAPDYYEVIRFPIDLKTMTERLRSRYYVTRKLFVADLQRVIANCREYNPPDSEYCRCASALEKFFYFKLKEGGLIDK

Target: Histone acetyltransferase KAT2A (Homo sapiens) (UniProt Q92830)
Assay: qHTS Assay for Inhibitors of GCN5L2
Conditions: GCN5L2 HAT assay, ThioGlo1 CoA-SH fluorescence; activity change, negative = inhibition: at 58.9 µM (top of the series) unless noted
Summary of the method: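 Enzyme at 20nM final was mixed with library compounds for 15 min at room temperature. Peptide H3(1-25) at 75uM, acetyl-CoA at 70uM and ThioGlo1 at 50uM were then added. Plates were read immediately and after 20 min (Ex340nm/Em540nm).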
% is scaled to controls: 0 for no effect and ±100 for the full control effect; potency is read from the fitted curve at half-maximal effect.

SMILES	Potency	activity change, negative = inhibition
N#CC1=C2SCN(C3CCCCC3)CN2C(=O)CC1c1ccc(Br)cc1 (configuration not stated)	active: 35.5 µM	
Cc1cccc(C)c1OCC(N)C(C)C (configuration not stated)	inconclusive: 25.1 µM [inhibitor, partial curve] and inconclusive: 15.8 µM [inhibitor, partial curve]	
Cc1ccc(-n2c(N)c(C(N)=O)sc2=S)c(C)c1	inactive	
O=C(c1ccc([N+](=O)[O-])cc1)N1CCN(c2cccc3[nH]ccc23)CC1	inconclusive: 0.708 µM [inhibitor, partial curve]	
Cn1c(CCNC(=O)c2ccc(Cl)c(Cl)c2)nnc1SCc1ccc(Cl)c(Cl)c1	inconclusive: 0.447 µM [inhibitor, full curve, poor fit]	
CN1CCN(C2CCN(Cc3ccc(O)c4ncccc34)CC2)CC1	inactive	
CSc1ccc(CNC(=O)C2CCC(=O)N(Cc3cccc(F)c3)C2)cc1 (configuration not stated)	inconclusive: 0.1 µM [inhibitor, full curve, poor fit]	
Clc1ccc(-c2nc3ccccc3nc2-c2ccccc2)cc1	inactive	
S=c1[nH]nc(Nc2ccccc2)s1	inconclusive: 12.6 µM [inhibitor, partial curve]	
O=C(Cc1ccccc1)NNC(=S)NC(=O)c1cccnc1	inconclusive: 22.4 µM [inhibitor, partial curve]	
CCOC(=O)c1c(N)sc2c1CCC(CC)C2 (configuration not stated)	inactive	
CN1CCCc2cc3c(C(F)(F)F)cc(=O)oc3nc21	inconclusive: 3.55 µM [inhibitor, full curve]	
COc1cccc(Cn2ncc3c4sc(Br)cc4n(C)c3c2=O)c1	inactive	
O=C(NC1CCCCC1)C(c1ccc(O)c(O)c1)N(C(=O)Cn1nnc2ccccc21)c1cccc(O)c1 (configuration not stated)	inactive	
CCn1c(C)nc2cc(C(=O)N/N=C/c3ccccc3)ccc21	inactive	
CC/C(=N\Nc1nncc2ccccc12)c1ccc(F)cc1	inactive	
CCCCNC(=O)Nc1ccccc1CC	inconclusive: 3.16 µM [inhibitor, full curve]	
c1coc(-c2nc3nc4ccccc4nc3n2CC2CCCO2)c1 (configuration not stated)		inactive: 0.842% [at 0.501 µM]
O=C(/C=C/c1ccc(NC(=O)c2ccccc2-c2ccccc2C(=O)O)cc1)c1ccccc1	inconclusive: 31.6 µM [inhibitor, partial curve]	
CC(C)NC(=O)CC(c1ccccc1)c1cc(Br)ccc1O (configuration not stated)		inconclusive: -90.3% [inhibitor] [at 0.501 µM]
Cc1ccc(C)n1-c1ccc(C(=O)O)cc1		inconclusive: -42% [inhibitor]
CCOC(=O)c1ccc(NC(=S)N2CCCC2c2ccc(OC)c(OC)c2)cc1 (configuration not stated)	inactive	
CC(=O)CN1Cc2ccccc2/C1=N\C(=O)Nc1ccccc1	inactive	
Cc1ccc(SCCC(=O)NCc2ccncc2)cc1	inactive	

SMILES	Potency	activity change, negative = inhibition
CC1C(c2ccccc2)N(C)C(c2ccccc2)C(C)C1(O)C#Cc1ccccc1 (configuration not stated)	inconclusive: 39.8 µM [inhibitor, single point]	
COc1ccc(OCc2cc(C(=O)NC3Cc4ccccc4C3)no2)c(Cl)c1	inconclusive: 35.5 µM [inhibitor, single point]	
CC(=O)N1CCN(c2ccccc2NC(=O)c2cc(Br)ccc2Cl)CC1	inactive	
COc1cccc(/C=N/NC(=O)c2nnn(-c3nonc3N)c2CN(C)c2ccccc2)c1	inconclusive: 44.7 µM [inhibitor, partial curve, poor fit]	
N#C/C(=C\c1ccc(O)c(O)c1)C(=O)N1CCc2ccccc21	inconclusive: 39.8 µM [inhibitor, single point]	
O=C(NCC1CCCCC1)c1cccc(-c2ccc(O)cc2)c1	inactive	
Cc1c(O)nc(SCC(=O)Nc2cccc(C(F)(F)F)c2)n(-c2ccccc2)c1=O	inconclusive: 0.141 µM [inhibitor, full curve, poor fit]	
Cc1ccc2[nH]c(=O)c3cc(C(=O)N(C)c4ccc(C)c(C)c4)sc3c2c1	inactive	
CCCCN1C(=O)c2ccc(C(=O)Nc3ccc(C)c(S(=O)(=O)N(C)C)c3)cc2C1=O	inconclusive: 3.16 µM [inhibitor, single point]	
Cn1c(SCC(=O)Nc2nnc(-c3ccccc3)o2)nnc1C1CC1	inactive	
N#C/C(=C\c1coc2ccccc2c1=O)C(N)=S	inconclusive: 25.1 µM [inhibitor, single point]	
CC(=O)c1ccc(NS(=O)(=O)c2cc3c(cc2C)N(C(C)=O)CCO3)cc1	inactive	
COc1ccccc1NC(=O)Nc1ccnn1C1CCN(C(=O)c2ccccn2)CC1	inconclusive: 1.26 µM [inhibitor, partial curve]	
COC(=O)Cc1nnc(SCC(=O)Nc2ccccc2)c2ccccc12	inconclusive: 7.08 µM [inhibitor, single point]	
O=C(Nc1c2c(nn1-c1ccc(F)cc1)CS(=O)(=O)C2)C12CC3CC(CC(C3)C1)C2	inconclusive: 0.891 µM [inhibitor, single point]	
COCCNC(=S)N(CCc1c(C)[nH]c2ccc(F)cc12)Cc1ccc(C)cc1	inconclusive: 28.2 µM [inhibitor, partial curve]	
O=C(Nc1ccc(S(=O)(=O)N2CCOCC2)cc1)c1ccc(S(=O)(=O)N2CCOCC2)cc1	inconclusive: 1 µM [inhibitor, full curve, poor fit]	
CCc1nnc(NC(=O)c2ccc3ccccc3n2)s1	inactive	
O=C(CCC(=O)N1CCN(c2ccccn2)CC1)c1ccc(Cl)s1	inconclusive: 31.6 µM [inhibitor, partial curve]	
Cc1cc(C(F)(F)F)c(C#N)c(SCC(=O)Nc2nc3cc(Br)ccc3s2)n1	inconclusive: 12.6 µM [inhibitor, partial curve]	
Cc1c(N2C(=O)c3ccc4c5c(ccc(c35)C2=O)CC4)c(=O)n(-c2ccccc2)n1C	inconclusive: 10 µM [inhibitor, partial curve]	
Oc1ccc(/C=N/Nc2ccc3ccccc3c2)c(O)c1	inactive	
CCOc1ccc(/C(O)=C2/C(=O)C(=O)N(c3ccccn3)C2c2ccc(C)cc2)c(C)c1 (configuration not stated)	inconclusive: 3.55 µM [inhibitor, single point]	
